Laboratory results published in PMC6497791.

Protein sequences, listed by entry. Tags and fused reporters are not part of them. Residues count along the entry.
UniProt P22723, residues 39-474: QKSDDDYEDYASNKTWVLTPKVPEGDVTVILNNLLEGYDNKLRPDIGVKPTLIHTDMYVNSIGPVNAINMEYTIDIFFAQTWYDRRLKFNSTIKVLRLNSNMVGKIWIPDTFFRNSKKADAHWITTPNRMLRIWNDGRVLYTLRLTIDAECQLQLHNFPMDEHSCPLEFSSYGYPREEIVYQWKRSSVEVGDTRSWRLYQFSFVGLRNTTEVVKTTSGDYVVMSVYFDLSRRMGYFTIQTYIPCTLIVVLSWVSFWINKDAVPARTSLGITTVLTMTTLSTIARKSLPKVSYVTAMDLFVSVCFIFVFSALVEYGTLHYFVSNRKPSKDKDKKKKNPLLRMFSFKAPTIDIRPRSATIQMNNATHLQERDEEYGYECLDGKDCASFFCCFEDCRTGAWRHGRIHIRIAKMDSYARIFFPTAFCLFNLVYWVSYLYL

B1: KxDL motif containing 1 (protein, UniProt Q80XH1 1-177)
chain: MDTPDSASRVFCGRFLSMVNTDDVNAIILAQKNMLDRFEKTNEMLLNFNNLSSVRLQQMSERFMHHTRTLVDMKRDLDSIFRRIRTLKGKLARQHPEAFSHIPEGSFLEDEDEDPIPPSITTTIATSEQSTGSCDTSPDTVSPSLSPGFEDLSHIQPGSPAINGHRQTDDEEETHEE
B2: Transmembrane protein with EGF like and two follistatin like domains 2 (protein, UniProt Q9QYM9 41-374)
chain: FPTSLSDCQTPTGWNCSGYDDRENDLFLCDTNTCKFDGECLRIGDTVTCVCQFKCNSDYVPVCGSNGESYQNECYLRQAACKQQSEILVVSEGSCATDTGSGSGDGVHEGSGETSQKETSTCDICQFGAECDEDAEDVWCVCNIDCSQTNFNPLCASDGKSYDNACQIKEASCQKQEKIEVMSLGRCQDNTTTTTKSEDGHYARTDYAENANKLEESAREHHIPCPEHYNGFCMHGKCEHSINMQEPSCRCDAGYTGQHCEKKDYSVLYVVPGPVRFQYVLIAAVIGTIQIAVICVVVLCITRKCPRSNRIHRQKQNTGHYSSDNTTRASTRLI
B3: Neurofilament heavy (protein, UniProt P19246 1-1090)
chain: MMSFGSADALLGAPFAPLHGGGSLHYSLSRKAGPGGTRSAAGSSSGFHSWARTSVSSVSASPSRFRGAASSTDSLDTLSNGPEGCVVAAVAARSEKEQLQALNDRFAGYIDKVRQLEAHNRSLEGEAAALRQQQAGRAAMGELYEREVREMRGAVLRLGAARGQLRLEQEHLLEDIAHVRQRLDEEARQREEAEAAARALARFAQEAEAARVELQKKAQALQEECGYLRRHHQEEVGELLGQIQGCGAAQAQAQAEARDALKCDVTSALREIRAQLEGHAVQSTLQSEEWFRVRLDRLSEAAKVNTDAMRSAQEEITEYRRQLQARTTELEALKSTKESLERQRSELEDRHQADIASYQDAIQQLDSELRNTKWEMAAQLREYQDLLNVKMALDIEIAAYRKLLEGEECRIGFGPSPFSLTEGLPKIPSISTHIKVKSEEMIKVVEKSEKETVIVEGQTEEIRVTEGVTEEEDKEAQGQEGEEAEEGEEKEEEEGAAATSPPAEEAASPEKETKSRVKEEAKSPGEAKSPGEAKSPAEAKSPGEAKSPGEAKSPGEAKSPAEPKSPAEPKSPAEAKSPAEPKSPATVKSPGEAKSPSEAKSPAEAKSPAEAKSPAEAKSPAEAKSPAEAKSPAEAKSPATVKSPGEAKSPSEAKSPAEAKSPAEAKSPAEAKSPAEVKSPGEAKSPAEPKSPAEAKSPAEVKSPAEAKSPAEVKSPGEAKSPAAVKSPAEAKSPAAVKSPGEAKSPGEAKSPAEAKSPAEAKSPIEVKSPEKAKTPVKEGAKSPAEAKSPEKAKSPVKEDIKPPAEAKSPEKAKSPVKEGAKPPEKAKPLDVKSPEAQTPVQEEAKHPTDIRPPEQVKSPAKEKAKSPEKEEAKTSEKVAPKKEEVKSPVKEEVKAKEPPKKVEEEKTLPTPKTEAKESKKDEAPKEAPKPKVEEKKETPTEKPKDSTAEAKKEEAGEKKKAVASEEETPAKLGVKEEAKPKEKTETTKTEAEDTKAKEPSKPTETEKPKKEEMPAAPEKKDTKEEKTTESRKPEEKPKMEAKVKEDDKSLSKEPSKPKTEKAEKSSSTDQKESQPPEKTTEDKATKGEK
B4: Ubiquinol-cytochrome c reductase core protein 1 (protein, UniProt Q9CZ13 35-480)
chain: TATFAQALQSVPETQVSILDNGLRVASEQSSHATCTVGVWIDAGSRYETEKNNGAGYFLEHLAFKGTKNRPGNALEKEVESIGAHLNAYSTREHTAYLIKALSKDLPKVVELLADIVQNSSLEDSQIEKERDVILREMQENDASMQNVVFDYLHATAFQGTPLAQAVEGPSENVRRLSRTDLTDYLNRHYKAPRMVLAAAGGVEHQQLLDLAQKHLSSVSRVYEEDAVPGLTPCRFTGSEIRHRDDALPLAHVAIAVEGPGWANPDNVTLQVANAIIGHYDCTYGGGVHLSSPLASVAVANKLCQSFQTFNISYSDTGLLGAHFVCDAMSIDDMVFFLQGQWMRLCTSATESEVTRGKNILRNALVSHLDGTTPVCEDIGRSLLTYGRRIPLAEWESRIQEVDAQMLRDICSKYFYDQCPAVAGYGPIEQLPDYNRIRSGMFWLRF
B5: ATP synthase peripheral stalk-membrane subunit b (protein, UniProt Q9CQQ7 43-256)
chain: PLPPLPEYGGKVRLGLIPEEFFQFLYPKTGVTGPYVLGTGLSLYFLSKEIYVITPETFSTISVVGLIVYVIKKYGASFGEFIDKLNEEKIAQLEEVKQSSMKQIQDAIDMEKAQQALVQKRHYLFDVQRNNIALALEVTYRERLHKAYKEVKNRLDYHISVQNMMRRKEEEHMIDWVEKHVVKSISVQQEKETIAKCIEDLKLLAKKAQAQPIM

Molecular target: GABA type A receptor γ2 subunit (mouse (endogenous in cortical tissue)) (UniProt P22723)
Assay: affinity purification with mass spectrometry; mouse cortical tissue lysate (mice injected with vehicle or 10 mg/kg DZP, 12 h) in co-IP buffer (50 mM Tris HCl pH 7.6, 50 mM NaCl, 0.25% Igepal, 1 mM EDTA), immunoprecipitated overnight with rabbit γ2 subunit antibody or rabbit IgG, Protein A Sepharose, 4°C; label-free HPLC-ESI-MS/MS; hits at least 3:1 enriched over IgG control

Binder | binding
B1 | binds
B2 | binds
B3 | binds
B4 | binds
B5 | binds

No constants are given. Whether binding was seen depends on the method and setting. In cells and extracts the contact can be indirect. Here binding means that the protein was enriched with, or labelled near, the bait; the list need not be complete.
